Measured values: patent US20210130454A1
No constants are given. Whether binding was seen depends on the method and setting. Some entries that bind do so weakly or less than the wild type.

Amino acid sequences for entries named in this document (tags omitted). A change or cut given only in a name is not applied to a line headed by its entry.
UniProt Q6UXD5: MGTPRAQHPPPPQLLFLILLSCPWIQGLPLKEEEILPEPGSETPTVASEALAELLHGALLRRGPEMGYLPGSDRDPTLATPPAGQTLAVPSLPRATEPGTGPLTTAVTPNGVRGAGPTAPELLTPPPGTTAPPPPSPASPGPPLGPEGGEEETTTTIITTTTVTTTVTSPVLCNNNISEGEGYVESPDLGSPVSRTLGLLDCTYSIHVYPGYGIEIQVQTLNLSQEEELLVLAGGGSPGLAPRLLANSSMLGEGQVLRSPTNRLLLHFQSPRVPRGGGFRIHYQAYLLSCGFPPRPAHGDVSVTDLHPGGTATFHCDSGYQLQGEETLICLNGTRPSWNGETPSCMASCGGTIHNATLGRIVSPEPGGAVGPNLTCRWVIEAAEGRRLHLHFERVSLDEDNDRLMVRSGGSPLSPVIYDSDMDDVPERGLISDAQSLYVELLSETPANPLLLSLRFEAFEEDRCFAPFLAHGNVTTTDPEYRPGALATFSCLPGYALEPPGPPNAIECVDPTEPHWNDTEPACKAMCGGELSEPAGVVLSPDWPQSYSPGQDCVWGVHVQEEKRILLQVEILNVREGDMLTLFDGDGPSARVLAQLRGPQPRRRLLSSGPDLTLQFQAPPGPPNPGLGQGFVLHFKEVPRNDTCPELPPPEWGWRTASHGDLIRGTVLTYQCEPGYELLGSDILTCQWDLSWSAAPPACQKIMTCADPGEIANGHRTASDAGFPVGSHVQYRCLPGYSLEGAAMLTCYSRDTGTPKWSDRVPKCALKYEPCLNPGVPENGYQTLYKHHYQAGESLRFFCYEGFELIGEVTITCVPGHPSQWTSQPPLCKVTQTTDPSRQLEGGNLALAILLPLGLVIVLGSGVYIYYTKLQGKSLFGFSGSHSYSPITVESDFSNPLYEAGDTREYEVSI

Target: human SEZ6L2 on cells (293-SEZ6L2, HEK 293 cells transfected with human SEZ6L2, and SEZ6L2-expressing tumor cell lines) (human) (UniProt Q6UXD5)
Experiment: immunofluorescence and flow cytometry on HEK 293 cells transfected with human SEZ6L2 against untransfected cells

binding: binds
B1: murine anti-SEZ6L2 antibody mu20C4 (antibody, V domains shown)
VH: DVMLVESGGVLVQPGGSLSLSCAASGFTFTDYYMSWVRQPPGKALEWLALIRNKANGYTTEYSASVKGRFTISRDNSQSILYLQMNALRAEDSATYYCARNGLYGLFAYWGQGTLVTVSA
VL: DIVMTQTAPSIPVTPGESVSISCRSSTSLLESSGKHRLYWFLQRPGQSPQLLIYYMSNLASGVPDRFSGSGSGTDFTLRISRVEAEDFGVYYCMQSLEYPLTFGAGTKLEIK
